According to PubChem BioAssay AID1487 (National Center for Advancing Translational Sciences (NCATS), 2009):
Some of the results follow. Shown are side measurements of this screen, not its main read-out; they come without a call. The list favours compounds with an active or inconclusive main result. The note in brackets gives the kind of curve behind each potency; many fits are weak.

Experiment: qHTS Assay for Modulators of Lamin A Splicing
Settings: HeLa LMNA splicing GFP/RFP minigene ratio, 48 h
Summary of the method: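 S3 HeLa stable clones carrying a lamin A-EGFP splicing minigene plus DsRed2 were seeded at 600 cells/well in Opti-MEM with 2% FBS, pin-dosed and incubated 48 h at 37°C. Acumen cytometry (488 nm) gave the GFP/RFP total-intensity ratio.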

[1] = measured here: GFP splicing reporter channel
[2] = measured here: RFP viability control channel

| Structure (SMILES) | AC50 [1] | AC50 [2] |
| --- | --- | --- |
| Cc1csc(SCC(=O)NCCc2ccc(Cl)cc2)n1 | 12.6 µM [rising, partial curve] | – |
| N#Cc1c(NCc2ccccc2)ccnc1NCc1cccnc1 | – | 6.31 µM [rising, full curve] |
| COc1ccccc1CCNCc1ccc(OC)c(OCc2ccccc2)c1 | – | 15.8 µM [rising, partial curve] |
| Cc1ccc(N2C(=O)CC2(C#N)c2ccc(OCc3ccccc3)cc2)cc1 (stereo not given) | – | 12.6 µM [rising, single point] |
| COC(=O)c1ccc(C)c(NC(=O)Cc2coc3cc(OC)ccc23)c1 | – | 35.5 µM [rising, single point] |
| O=S(=O)(NCC(c1ccco1)N1CCOCC1)c1ccc(F)cc1 (stereo not given) | 14.1 µM [rising, single point] | – |
| Cc1ccc(NC(=O)CSc2nc(N)c3c4c(sc3n2)CSC(C)(C)C4)cc1 | – | 35.5 µM [rising, single point] |
| O=c1c2c(-c3ccco3)csc2nc(SCc2cn3cccnc3n2)n1-c1ccccc1 | – | 14.1 µM [rising, single point] |
| CC(=O)Nc1nn(C)c2nc3cc(C)ccc3cc12 | – | 0.00447 µM [rising, full curve, poor fit] |
| O=C(Nc1cccc(S(=O)(=O)C(F)F)c1)c1ccc(S(=O)(=O)N2CCCCC2)cc1 | 22.4 µM [falling, single point] | – |
| CN1CCN(CCCNC(=O)c2ccc(/C=C3/Sc4ccccc4N(Cc4cccc(Cl)c4)C3=O)cc2)CC1 | 15.8 µM [falling, single point] | 25.1 µM [falling, partial curve] |
| COc1ccc(N2CCN(C(=O)CSc3nnc(-c4ccco4)n3C)CC2)cc1 | 17.8 µM [falling, single point] | 35.5 µM [falling, single point] |
| COc1cc(C(=O)Nc2ccc(Br)cc2C(=O)c2cc(OC)c(OC)c(OC)c2)cc(OC)c1OC | – | 35.5 µM [rising, single point] |
| c1nc(NC2CCCC2)c2[nH]cnc2n1 | – | 0.00794 µM [rising, full curve, poor fit] |
| Cc1ccc(NC(=O)CSc2nc3c(cc2C#N)C(=O)CCC3)cc1S(=O)(=O)N(C)C | – | 22.4 µM [rising, partial curve] |
| CC(C)(C)NC(=O)CCN(/N=C/c1ccc([N+](=O)[O-])o1)C1=NS(=O)(=O)c2ccccc21 | – | 17.8 µM [rising, partial curve, poor fit] |
| COC(=O)C1=C(C)N(Cc2ccco2)C(=O)N[C@@H]1c1ccccc1 | – | 0.501 µM [rising, single point] |
| COc1ccc(CN(C(=O)Cn2nnc(-c3ccc(C)o3)n2)C(C(=O)NCC2CCCO2)c2ccco2)cc1 (stereo not given) | – | 0.282 µM [falling, full curve, poor fit] |
| CCOC(=O)C1=C(C)N=C2c3ccccc3C(=O)C2C1c1ccc(Br)cc1 (stereo not given) | 11.2 µM [falling, partial curve] | – |
| Cc1cc(C)n(CC(=O)Nc2cc(F)ccc2F)c(=O)c1C#N | 25.1 µM [rising, single point] | – |
| CCOC(=O)NC(c1ccc(C(C)C)cc1)C(Cl)(Cl)Cl (stereo not given) | 15.8 µM [rising, partial curve, poor fit] | 15.8 µM [rising, partial curve] |
| Cc1c(-c2ccc(Cl)cc2)oc(=O)c2c(N)n(-c3ccccc3)nc12 | 12.6 µM [rising, partial curve] | 8.91 µM [rising, partial curve] |
| CCOc1ccc(NC(=O)Cn2c(=O)cc(C)c3c(C)nn(C)c32)cc1 | – | 0.00282 µM [falling, full curve, poor fit] |
| CC[C@H](C)[C@H](N)C1=N[C@H](C(=O)N[C@@H](CC(C)C)C(=O)N[C@@H](CCC(=O)O)C(=O)N[C@@H](C(=O)N[C@H]2CCCCNC(=O)[C@@H](CC(N)=O)NC(=O)[C@@H](CC(=O)O)NC(=O)[C@@H](Cc3cnc[nH]3)NC(=O)[C@@H](Cc3ccccc3)NC(=O)[C@@H]([C@@H](C)CC)NC(=O)[C@@H](CCCN)NC2=O)[C@@H](C)CC)CS1 | – | 0.282 µM [falling, single point] |
| COc1ccc(NC(=O)C2OC3OC(C)(C)OC3C3OC(C)(C)OC23)cc1 (stereo not given) | 0.251 µM [rising, full curve] | – |
| O=C(Nc1ccc(F)cc1)c1cn(-c2ccccc2)nc1-c1ccncc1 | – | 22.4 µM [rising, single point] |
| Cc1ccccc1-c1ccc(Nc2ccc(C(=O)N3CCOCC3)cc2)nn1 | 0.891 µM [rising, full curve, poor fit] | – |
| Cc1ccc(S(=O)(=O)c2c(Nc3ccc(C)c(C)c3)sc(C(=O)c3ccc4c(c3)OCO4)c2N)cc1 | 5.01 µM [rising, partial curve, poor fit] | 0.447 µM [rising, full curve] |
| CCOc1ccc(/C=C/C(O)=C2/C(=O)N(C)C3(C)CC2c2ccccc2O3)cc1OC (stereo not given) | 11.2 µM [falling, single point] | 7.08 µM [falling, partial curve, poor fit] |

An excerpt from the list above, for reference:

| Structure (SMILES) | AC50 [1] | AC50 [2] |
| --- | --- | --- |
| COC(=O)C1=C(C)N(Cc2ccco2)C(=O)N[C@@H]1c1ccccc1 | – | 0.501 µM [rising, single point] |
| COc1ccc(CN(C(=O)Cn2nnc(-c3ccc(C)o3)n2)C(C(=O)NCC2CCCO2)c2ccco2)cc1 (stereo not given) | – | 0.282 µM [falling, full curve, poor fit] |
